# Laboratory results reported in the supplement of paper PMC10849652.
# Amino acid sequences for entries named in this document (tags omitted). A change or cut given only in a name is not applied to a line headed by its entry.
# UniProt Q9ULI2: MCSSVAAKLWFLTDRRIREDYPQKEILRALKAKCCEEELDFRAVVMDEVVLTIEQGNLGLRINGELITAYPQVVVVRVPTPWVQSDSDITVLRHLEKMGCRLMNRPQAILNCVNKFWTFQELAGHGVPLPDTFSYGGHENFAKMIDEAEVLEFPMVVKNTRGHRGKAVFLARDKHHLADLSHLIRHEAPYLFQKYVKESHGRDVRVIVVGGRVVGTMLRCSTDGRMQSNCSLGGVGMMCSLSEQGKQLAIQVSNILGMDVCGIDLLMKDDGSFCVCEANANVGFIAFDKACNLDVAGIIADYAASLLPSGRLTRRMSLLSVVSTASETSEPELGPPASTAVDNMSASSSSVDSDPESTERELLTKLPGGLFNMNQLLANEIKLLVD
# UniProt Q9P260: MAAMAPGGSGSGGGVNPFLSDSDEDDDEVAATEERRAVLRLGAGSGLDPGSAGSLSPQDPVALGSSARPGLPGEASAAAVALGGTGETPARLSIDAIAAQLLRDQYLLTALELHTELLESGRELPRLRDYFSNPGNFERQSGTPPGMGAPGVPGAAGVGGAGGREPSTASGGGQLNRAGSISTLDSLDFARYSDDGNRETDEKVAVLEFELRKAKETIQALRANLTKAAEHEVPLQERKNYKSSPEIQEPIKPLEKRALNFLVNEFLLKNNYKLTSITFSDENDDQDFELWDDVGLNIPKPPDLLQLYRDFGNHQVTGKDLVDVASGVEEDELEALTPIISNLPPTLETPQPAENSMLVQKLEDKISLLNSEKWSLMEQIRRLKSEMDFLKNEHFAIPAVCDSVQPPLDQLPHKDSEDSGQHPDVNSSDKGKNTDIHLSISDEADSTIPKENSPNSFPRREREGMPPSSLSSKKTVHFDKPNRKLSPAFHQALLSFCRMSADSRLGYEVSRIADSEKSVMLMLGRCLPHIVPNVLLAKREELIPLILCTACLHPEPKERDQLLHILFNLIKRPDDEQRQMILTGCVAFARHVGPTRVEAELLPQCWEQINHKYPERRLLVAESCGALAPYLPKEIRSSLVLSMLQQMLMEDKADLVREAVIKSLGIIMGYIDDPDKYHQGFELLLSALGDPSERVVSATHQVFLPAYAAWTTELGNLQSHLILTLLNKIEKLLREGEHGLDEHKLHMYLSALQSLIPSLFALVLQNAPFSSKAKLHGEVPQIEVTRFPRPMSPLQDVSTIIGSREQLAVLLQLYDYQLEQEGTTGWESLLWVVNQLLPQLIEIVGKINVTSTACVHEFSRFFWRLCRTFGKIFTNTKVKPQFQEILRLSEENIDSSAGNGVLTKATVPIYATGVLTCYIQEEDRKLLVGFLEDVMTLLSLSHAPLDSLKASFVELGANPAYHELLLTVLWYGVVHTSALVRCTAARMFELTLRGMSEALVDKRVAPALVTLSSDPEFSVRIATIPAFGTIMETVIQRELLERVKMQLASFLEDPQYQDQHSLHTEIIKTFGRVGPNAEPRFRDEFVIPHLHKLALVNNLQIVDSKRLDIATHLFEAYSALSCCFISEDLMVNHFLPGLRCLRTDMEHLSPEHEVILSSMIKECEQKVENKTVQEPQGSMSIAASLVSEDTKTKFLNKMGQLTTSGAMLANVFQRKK
# UniProt Q6NUM9: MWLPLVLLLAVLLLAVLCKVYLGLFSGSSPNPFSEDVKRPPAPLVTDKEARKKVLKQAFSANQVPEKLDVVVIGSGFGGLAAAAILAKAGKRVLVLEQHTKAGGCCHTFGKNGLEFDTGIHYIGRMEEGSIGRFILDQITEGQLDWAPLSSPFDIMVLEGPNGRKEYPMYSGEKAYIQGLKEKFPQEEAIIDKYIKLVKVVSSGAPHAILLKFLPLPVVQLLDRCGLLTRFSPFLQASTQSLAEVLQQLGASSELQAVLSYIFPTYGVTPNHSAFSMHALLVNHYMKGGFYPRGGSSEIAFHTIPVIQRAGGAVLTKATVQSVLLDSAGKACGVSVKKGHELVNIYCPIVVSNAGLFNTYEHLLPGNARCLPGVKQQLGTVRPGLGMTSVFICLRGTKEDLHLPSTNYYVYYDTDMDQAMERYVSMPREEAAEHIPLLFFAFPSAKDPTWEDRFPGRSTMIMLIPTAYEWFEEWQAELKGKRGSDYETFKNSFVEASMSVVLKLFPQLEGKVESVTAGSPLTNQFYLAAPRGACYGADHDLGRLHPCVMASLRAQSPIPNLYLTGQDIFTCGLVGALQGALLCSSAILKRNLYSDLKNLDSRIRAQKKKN
# UniProt Q5UIP0: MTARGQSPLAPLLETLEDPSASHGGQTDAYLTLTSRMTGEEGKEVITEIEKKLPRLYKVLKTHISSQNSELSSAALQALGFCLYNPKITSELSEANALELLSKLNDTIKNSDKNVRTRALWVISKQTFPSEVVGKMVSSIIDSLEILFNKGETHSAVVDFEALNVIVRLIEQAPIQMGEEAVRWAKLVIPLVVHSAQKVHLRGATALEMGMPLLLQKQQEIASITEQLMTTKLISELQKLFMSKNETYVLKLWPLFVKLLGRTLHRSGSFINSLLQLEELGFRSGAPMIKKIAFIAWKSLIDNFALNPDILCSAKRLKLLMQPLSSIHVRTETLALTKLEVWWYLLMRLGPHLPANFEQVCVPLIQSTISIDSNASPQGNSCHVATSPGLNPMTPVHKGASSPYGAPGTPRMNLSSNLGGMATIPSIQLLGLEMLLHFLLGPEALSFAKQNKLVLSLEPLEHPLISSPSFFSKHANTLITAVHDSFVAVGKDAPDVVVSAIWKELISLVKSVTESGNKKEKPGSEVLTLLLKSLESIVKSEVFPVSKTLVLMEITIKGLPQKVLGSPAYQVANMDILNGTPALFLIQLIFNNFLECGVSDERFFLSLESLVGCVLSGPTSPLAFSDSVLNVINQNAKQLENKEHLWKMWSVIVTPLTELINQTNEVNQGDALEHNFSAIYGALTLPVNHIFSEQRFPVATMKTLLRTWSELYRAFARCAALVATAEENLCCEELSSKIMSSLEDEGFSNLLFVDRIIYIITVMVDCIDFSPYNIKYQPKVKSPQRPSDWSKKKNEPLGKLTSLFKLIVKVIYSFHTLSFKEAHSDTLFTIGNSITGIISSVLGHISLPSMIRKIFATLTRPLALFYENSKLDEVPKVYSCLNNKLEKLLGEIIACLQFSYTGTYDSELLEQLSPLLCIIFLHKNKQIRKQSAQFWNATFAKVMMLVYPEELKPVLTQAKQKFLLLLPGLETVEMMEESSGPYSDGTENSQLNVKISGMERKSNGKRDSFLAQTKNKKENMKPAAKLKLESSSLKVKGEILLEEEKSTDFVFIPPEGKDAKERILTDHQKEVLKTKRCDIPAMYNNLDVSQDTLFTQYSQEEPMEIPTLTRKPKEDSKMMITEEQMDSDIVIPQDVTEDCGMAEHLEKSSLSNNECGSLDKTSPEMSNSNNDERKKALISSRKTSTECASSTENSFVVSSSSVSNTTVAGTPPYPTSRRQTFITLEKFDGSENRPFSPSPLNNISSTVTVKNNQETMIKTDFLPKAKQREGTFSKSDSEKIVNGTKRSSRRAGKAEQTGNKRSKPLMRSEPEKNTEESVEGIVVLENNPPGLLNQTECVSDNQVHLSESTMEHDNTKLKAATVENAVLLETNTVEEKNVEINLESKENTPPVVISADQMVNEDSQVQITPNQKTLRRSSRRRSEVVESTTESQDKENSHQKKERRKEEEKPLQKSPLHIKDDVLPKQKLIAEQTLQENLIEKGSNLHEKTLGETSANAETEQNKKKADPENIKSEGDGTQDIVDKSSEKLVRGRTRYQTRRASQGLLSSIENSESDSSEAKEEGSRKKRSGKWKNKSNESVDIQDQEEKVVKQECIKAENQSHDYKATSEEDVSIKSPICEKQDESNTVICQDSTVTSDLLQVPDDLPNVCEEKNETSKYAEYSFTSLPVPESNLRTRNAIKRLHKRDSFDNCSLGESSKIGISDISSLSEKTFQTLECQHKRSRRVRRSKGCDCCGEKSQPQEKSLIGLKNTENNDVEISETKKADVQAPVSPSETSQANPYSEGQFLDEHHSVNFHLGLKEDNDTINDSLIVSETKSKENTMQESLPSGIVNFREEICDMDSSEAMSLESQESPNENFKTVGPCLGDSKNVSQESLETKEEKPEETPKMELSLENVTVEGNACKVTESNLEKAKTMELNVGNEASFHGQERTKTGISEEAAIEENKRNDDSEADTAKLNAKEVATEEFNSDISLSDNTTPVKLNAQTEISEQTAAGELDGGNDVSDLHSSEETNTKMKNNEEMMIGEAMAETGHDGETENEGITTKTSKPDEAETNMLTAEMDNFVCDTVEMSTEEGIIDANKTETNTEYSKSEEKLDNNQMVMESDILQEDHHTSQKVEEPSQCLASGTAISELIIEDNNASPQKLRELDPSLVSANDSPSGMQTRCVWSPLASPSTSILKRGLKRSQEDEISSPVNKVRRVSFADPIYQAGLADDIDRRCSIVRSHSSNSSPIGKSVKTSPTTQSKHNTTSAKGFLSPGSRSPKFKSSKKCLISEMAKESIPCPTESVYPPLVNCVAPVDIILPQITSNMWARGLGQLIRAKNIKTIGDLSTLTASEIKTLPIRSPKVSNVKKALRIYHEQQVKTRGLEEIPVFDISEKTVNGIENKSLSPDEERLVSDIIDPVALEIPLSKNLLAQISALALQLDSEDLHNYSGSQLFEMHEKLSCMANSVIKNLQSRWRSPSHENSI
# UniProt O00584, whole entry, looked up: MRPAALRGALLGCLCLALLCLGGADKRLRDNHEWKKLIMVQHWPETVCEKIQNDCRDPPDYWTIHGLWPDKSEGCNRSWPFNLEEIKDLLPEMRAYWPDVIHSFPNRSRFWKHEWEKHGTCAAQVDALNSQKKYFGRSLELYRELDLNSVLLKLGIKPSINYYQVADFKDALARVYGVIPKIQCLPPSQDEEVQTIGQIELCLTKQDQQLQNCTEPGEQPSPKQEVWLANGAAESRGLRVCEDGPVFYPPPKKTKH
# UniProt Q9Y256: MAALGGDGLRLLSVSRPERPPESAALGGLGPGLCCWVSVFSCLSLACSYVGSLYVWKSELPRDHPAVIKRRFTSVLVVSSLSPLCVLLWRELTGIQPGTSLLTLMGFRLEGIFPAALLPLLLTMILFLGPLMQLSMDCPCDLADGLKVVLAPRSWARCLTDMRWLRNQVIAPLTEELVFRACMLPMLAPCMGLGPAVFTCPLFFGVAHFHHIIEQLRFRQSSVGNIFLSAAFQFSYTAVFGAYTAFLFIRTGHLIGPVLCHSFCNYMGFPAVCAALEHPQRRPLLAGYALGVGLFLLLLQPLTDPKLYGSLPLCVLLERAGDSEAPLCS
# UniProt Q9H6H4: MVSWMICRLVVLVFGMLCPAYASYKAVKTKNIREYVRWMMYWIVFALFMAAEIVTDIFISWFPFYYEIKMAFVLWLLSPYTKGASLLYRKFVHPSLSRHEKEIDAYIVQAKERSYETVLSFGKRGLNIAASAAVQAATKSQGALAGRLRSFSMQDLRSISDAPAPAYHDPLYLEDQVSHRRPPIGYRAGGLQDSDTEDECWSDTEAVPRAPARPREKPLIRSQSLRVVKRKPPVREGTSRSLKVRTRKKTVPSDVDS
# UniProt Q8WVD3: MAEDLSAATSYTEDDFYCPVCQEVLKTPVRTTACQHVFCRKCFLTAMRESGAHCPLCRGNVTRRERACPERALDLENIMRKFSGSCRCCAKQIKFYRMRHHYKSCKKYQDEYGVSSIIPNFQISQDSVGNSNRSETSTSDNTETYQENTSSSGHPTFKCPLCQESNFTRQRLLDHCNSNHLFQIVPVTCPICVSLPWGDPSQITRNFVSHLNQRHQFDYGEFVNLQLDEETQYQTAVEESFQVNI
# UniProt Q9Y580: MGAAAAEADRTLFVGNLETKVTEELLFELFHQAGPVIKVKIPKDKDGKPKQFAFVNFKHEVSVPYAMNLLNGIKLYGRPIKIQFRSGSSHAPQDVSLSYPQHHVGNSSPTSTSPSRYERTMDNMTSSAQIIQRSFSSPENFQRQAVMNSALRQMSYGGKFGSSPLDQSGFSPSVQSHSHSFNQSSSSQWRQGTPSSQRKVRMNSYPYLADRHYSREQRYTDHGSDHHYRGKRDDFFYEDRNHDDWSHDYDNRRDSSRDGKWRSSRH
# UniProt Q8IZV5: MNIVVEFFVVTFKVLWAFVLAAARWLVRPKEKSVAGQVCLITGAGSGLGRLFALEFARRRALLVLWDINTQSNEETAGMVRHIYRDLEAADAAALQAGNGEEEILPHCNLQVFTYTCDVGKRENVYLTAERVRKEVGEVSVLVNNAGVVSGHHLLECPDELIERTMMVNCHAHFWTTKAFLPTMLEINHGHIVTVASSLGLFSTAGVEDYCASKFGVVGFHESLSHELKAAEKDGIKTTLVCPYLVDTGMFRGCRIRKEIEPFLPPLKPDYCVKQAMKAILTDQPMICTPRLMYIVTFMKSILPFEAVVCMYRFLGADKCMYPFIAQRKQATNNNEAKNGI
# Some of the results follow.
# Columns and labels:
# Assay in all cases: log2 fold change, soluble protein after heating vs DMSO (PISA); higher = thermal stabilisation; K562 cells, 10 uM, 30 min; active = over 0.2 and 3.5 SD of the protein, either way, in both replicates (recomputed)
# [1] = compound: CS(=O)(=O)c1ccc(-c2cnc(N)c(C(=O)Nc3ccccc3)n2)cc1
# Method in brief: (§1)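 Thermal stability values are relative to control samples and come from duplicates. They are expressed as log2 fold changes. For measurement, K562 cells (2×10^6 cells/mL) received 10 μM compound for 30 min, and aliquots were heated for 3 min over 48°C-58°C, pooled, and extracted at 4°C in PBS with 0.5% NP-40. Soluble protein, the supernatant after 21,000xg for 90 min, was quantified by TMTpro 16plex LC-MS/MS with equalised channel sums.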
# [2] = compound: C[C@@H]1COCCN1C2=NC(=NC(=C2)C3(CC3)S(=O)(=O)C)C4=C5C=CNC5=CC=C4
# Method in brief: as §1
# [3] = compound: C[C@H](C1=CC=C(C=C1)C(=O)NC2=C3C=CNC3=NC=C2)N
# Method in brief: as §1
# [4] = compound: Cc1cc(Nc2cc(N3CCN(C)CC3)nc(Sc3ccc(NC(=O)C4CC4)cc3)n2)n[nH]1 [tozasertib]
# Method in brief: as §1
# [5] = compound: Cc1ccc(C(=O)N(CCCN)[C@@H](c2nc3cc(Cl)ccc3c(=O)n2Cc2ccccc2)C(C)C)cc1 [ispinesib]
# Method in brief: as §1
# [6] = compound: Cc1ccc(NC(=O)c2ccc(CN3CC[C@H](N(C)C)C3)c(C(F)(F)F)c2)cc1Nc1nccc(-c2cncnc2)n1 [bafetinib]
# Method in brief: as §1
# [7] = compound: Cc1cn(-c2cc(NC(=O)c3ccc(C)c(Nc4nccc(-c5cccnc5)n4)c3)cc(C(F)(F)F)c2)cn1 [nilotinib]
# Method in brief: as §1
# [8] = compound: Cc1nc(Nc2n[nH]c3c2CN(C(=O)N[C@H](CN(C)C)c2ccccc2)C3(C)C)c2sccc2n1
# Method in brief: as §1
# [9] = compound: Cc1ncc(-c2ccnc(Nc3ccc(S(C)(=O)=O)cc3)n2)n1C(C)C
# Method in brief: as §1
# [10] = compound: Cn1cc(-c2ccc3c(c2)CCN3C(=O)Cc2cccc(C(F)(F)F)c2)c2c(N)ncnc21
# Method in brief: as §1
# [11] = compound: Cn1cc(-c2ccc3nnc(C(F)(F)c4ccc5ncccc5c4)n3n2)cn1
# Method in brief: as §1
# [12] = compound: FC(F)(F)c1ccc(/C=C/c2nc(COc3ccc(CCCCn4ccnn4)cc3)co2)cc1 [mubritinib]
# Method in brief: as §1
# [13] = compound: C[C@@H](Oc1cc(-c2cnn(C3CCNCC3)c2)cnc1N)c1c(Cl)ccc(F)c1Cl [crizotinib]
# Method in brief: as §1
# [14] = compound: Cc1ccc(-n2nc(C(C)(C)C)cc2NC(=O)Nc2ccc(OCCN3CCOCC3)c3ccccc23)cc1 [doramapimod]
# Method in brief: as §1
# [15] = compound: Cn1cncc1[C@@](N)(c1ccc(Cl)cc1)c1ccc2c(c1)c(-c1cccc(Cl)c1)cc(=O)n2C [tipifarnib]
# Method in brief: as §1
# [16] = compound: Cc1cc(Nc2cc(CN3CCOCC3)c3nc(C)c(Cc4ccc(Cl)cc4F)n3n2)n[nH]1 [gandotinib]
# Method in brief: as §1
# [17] = compound: Cc1cc(SCc2sc(-c3ccc(C(F)(F)F)cc3)nc2C)ccc1OCC(=O)O
# Method in brief: as §1
# [18] = compound: Cc1cccc(CC(=O)N2CCc3c2ccc(-c2cn(C)c4ncnc(N)c24)c3F)n1
# Method in brief: as §1
# [19] = compound: Cc1nc(Nc2ncc(C(=O)Nc3c(C)cccc3Cl)s2)cc(N2CCN(CCO)CC2)n1 [dasatinib]
# Method in brief: as §1
# [20] = compound: C[C@H](Nc1ncnc2nc[nH]c12)c1cc2cccc(Cl)c2c(=O)n1-c1ccccc1 [duvelisib]
# Method in brief: as §1
Target,log2 fold change [1],log2 fold change [2],log2 fold change [3],log2 fold change [4],log2 fold change [5],log2 fold change [6],log2 fold change [7],log2 fold change [8],log2 fold change [9],log2 fold change [10],log2 fold change [11],log2 fold change [12],log2 fold change [13],log2 fold change [14],log2 fold change [15],log2 fold change [16],log2 fold change [17],log2 fold change [18],log2 fold change [19],log2 fold change [20]
RGP1 (UniProt Q92546),inactive: 0.116,inactive: 0.058,inactive: -0.061,inactive: -0.104,inactive: 0.134,inactive: -0.134,inactive: -0.312,inactive: -0.002,inactive: -0.104,inactive: -0.036,inactive: -0.245,inactive: 0.06,–,–,–,–,–,–,–,–
RIMKLB (UniProt Q9ULI2),inactive: 0.201,inactive: -0.035,–,–,–,inactive: 0.003,inactive: 0.062,inactive: -0.118,inactive: -0.012,–,–,inactive: -0.012,inactive: 0.079,inactive: -0.029,inactive: 0.038,–,–,–,–,–
RIOK3 (UniProt O14730),inactive: -0.004,inactive: 0.029,inactive: -0.026,–,inactive: -0.004,inactive: -0.004,inactive: -0.017,inactive: 0.06,inactive: -0.01,inactive: 0.018,inactive: -0.005,inactive: 0.017,inactive: -0.031,inactive: -0.019,inactive: 0.002,inactive: 0.086,inactive: -0.011,inactive: -0.02,inactive: 0.053,–
RELA (UniProt Q04206),inactive: 0.03,inactive: 0.005,inactive: -0.029,–,inactive: 0.017,inactive: -0.04,inactive: -0.023,active: -0.295,inactive: -0.031,inactive: 0.04,inactive: -0.047,inactive: 0.044,inactive: 0.036,–,inactive: -0.04,inactive: -0.086,inactive: 0.055,inactive: 0.006,–,–
RIOK2 (UniProt Q9BVS4),inactive: 0.059,inactive: -0.167,inactive: 0.189,–,inactive: -0.019,inactive: 0.27,inactive: 0.094,inactive: 0.202,inactive: 0.231,inactive: -0.041,inactive: -0.067,inactive: 0.014,inactive: -0.057,inactive: 0.084,inactive: -0.003,inactive: 0.263,inactive: 0.053,inactive: 0.003,inactive: 0.013,–
RNASEH2A (UniProt O75792),inactive: 0.106,inactive: -0.045,inactive: -0.032,–,inactive: -0.001,inactive: -0.111,inactive: -0.025,inactive: 0.024,inactive: -0.047,inactive: 0.056,inactive: 0.038,inactive: 0.059,inactive: -0.134,inactive: -0.023,inactive: -0.003,inactive: 0.156,inactive: 0.029,active: -0.303,inactive: -0.159,–
RELCH isoform 2 (UniProt Q9P260),inactive: 0.016,inactive: 0.027,inactive: 0.004,inactive: -0.069,inactive: 0.035,inactive: -0.092,inactive: -0.087,inactive: -0.084,inactive: -0.147,inactive: 0.05,inactive: 0.222,inactive: -0.006,–,–,–,inactive: -0.036,inactive: 0.055,inactive: -0.176,inactive: -0.209,inactive: 0.028
RETSAT (UniProt Q6NUM9),inactive: -0.038,inactive: -0.129,inactive: -0.003,–,inactive: -0.008,inactive: -0.011,inactive: 0.154,inactive: -0.076,active: 0.511,inactive: 0.045,inactive: -0.002,inactive: 0.182,inactive: 0.005,inactive: 0.147,inactive: -0.052,inactive: 0.284,inactive: 0.036,inactive: -0.034,inactive: -0.001,–
RIF1 (UniProt Q5UIP0),inactive: -0.101,inactive: -0.07,inactive: 0.184,inactive: -0.061,inactive: -0.311,–,inactive: -0.145,inactive: -0.134,inactive: 0.076,inactive: -0.128,inactive: -0.131,–,–,–,inactive: 0.411,inactive: -0.053,inactive: 0.156,inactive: -0.099,inactive: -0.13,inactive: 0.046
RBSN (UniProt Q9H1K0),inactive: -0.22,–,–,inactive: 0.024,inactive: -0.045,inactive: -0.111,inactive: -0.026,inactive: -0.023,inactive: -0.073,–,inactive: 0.054,–,inactive: -0.127,inactive: 0.039,inactive: -0.059,inactive: -0.124,inactive: 0.196,inactive: 0.077,inactive: -0.169,inactive: -0.122
RNASET2 (UniProt O00584),inactive: 0.033,inactive: 0.027,inactive: 0.08,–,inactive: -0.149,active: -0.261,inactive: 0.016,inactive: -0.002,inactive: -0.034,inactive: -0.065,inactive: 0.027,inactive: 0.021,active: -0.35,inactive: -0.013,inactive: 0.067,inactive: 0.01,inactive: -0.037,inactive: -0.006,inactive: -0.031,–
RCE1 (UniProt Q9Y256),inactive: 0.043,inactive: 0.753,inactive: -0.01,inactive: 0.132,inactive: 0.014,inactive: -0.113,inactive: -0.164,inactive: 0.023,inactive: -0.212,inactive: -0.296,inactive: 0.022,inactive: 0.091,–,–,inactive: 0.084,inactive: -0.03,inactive: -0.003,inactive: -0.213,inactive: -0.001,inactive: 0.046
RCOR3 isoform 3 (UniProt Q9P2K3),inactive: -0.039,–,inactive: -0.061,–,inactive: -0.065,inactive: 0.023,inactive: -0.019,inactive: 0.001,inactive: -0.022,inactive: -0.056,inactive: 0.006,inactive: 0.09,inactive: -0.117,inactive: -0.047,inactive: -0.119,inactive: -0.015,inactive: 0.104,inactive: 0.039,inactive: -0.09,–
REEP4 (UniProt Q9H6H4),inactive: -0.015,inactive: -0.027,inactive: 0.02,–,active: -0.275,inactive: 0.021,inactive: -0.017,inactive: -0.077,inactive: 0.067,inactive: -0.052,inactive: -0.056,inactive: -0.04,inactive: -0.148,inactive: 0.06,inactive: -0.109,inactive: 0.001,inactive: 0.02,inactive: 0.127,inactive: -0.079,–
RNF2 (UniProt Q99496),inactive: 0.008,inactive: -0.013,inactive: -0.105,–,–,inactive: -0.102,inactive: 0.065,inactive: -0.214,inactive: 0.061,inactive: -0.005,–,inactive: -0.031,inactive: -0.028,inactive: -0.093,inactive: -0.026,inactive: -0.091,inactive: 0.073,inactive: 0.022,inactive: -0.106,–
RNF138 (UniProt Q8WVD3),inactive: 0.047,inactive: 0.05,inactive: -0.044,inactive: 0.018,–,inactive: -0.012,inactive: -0.015,inactive: -0.354,inactive: -0.327,inactive: 0.094,–,inactive: 0.031,–,–,inactive: -0.092,inactive: -0.054,inactive: 0.053,inactive: -0.038,inactive: -0.192,inactive: -0.016
RBM7 (UniProt Q9Y580),inactive: 0.081,inactive: -0.002,inactive: -0.038,inactive: -0.053,inactive: -0.34,–,inactive: -0.131,inactive: 0.224,inactive: 0.006,inactive: -0.015,inactive: -0.027,inactive: 0.028,–,–,inactive: 0.025,inactive: -0.13,inactive: 0.091,inactive: -0.034,inactive: -0.328,inactive: 0.052
RDH10 (UniProt Q8IZV5),inactive: -0.016,inactive: 0.116,inactive: -0.011,–,inactive: 0.036,inactive: -0.031,inactive: 0.051,inactive: -0.032,inactive: -0.014,active: 0.37,inactive: 0.183,inactive: 0.106,inactive: 0.087,inactive: -0.016,inactive: 0.028,inactive: -0.111,inactive: -0.003,inactive: 0.15,active: 0.237,–

# Fetched one by one from the entries so far (2):
Target,log2 fold change [1],log2 fold change [2],log2 fold change [3],log2 fold change [4],log2 fold change [5],log2 fold change [6],log2 fold change [7],log2 fold change [8],log2 fold change [9],log2 fold change [10],log2 fold change [11],log2 fold change [12],log2 fold change [13],log2 fold change [14],log2 fold change [15],log2 fold change [16],log2 fold change [17],log2 fold change [18],log2 fold change [19],log2 fold change [20]
RIOK2 (UniProt Q9BVS4),inactive: 0.059,inactive: -0.167,inactive: 0.189,–,inactive: -0.019,inactive: 0.27,inactive: 0.094,inactive: 0.202,inactive: 0.231,inactive: -0.041,inactive: -0.067,inactive: 0.014,inactive: -0.057,inactive: 0.084,inactive: -0.003,inactive: 0.263,inactive: 0.053,inactive: 0.003,inactive: 0.013,–
RBSN (UniProt Q9H1K0),inactive: -0.22,–,–,inactive: 0.024,inactive: -0.045,inactive: -0.111,inactive: -0.026,inactive: -0.023,inactive: -0.073,–,inactive: 0.054,–,inactive: -0.127,inactive: 0.039,inactive: -0.059,inactive: -0.124,inactive: 0.196,inactive: 0.077,inactive: -0.169,inactive: -0.122
